According to patent publication US20250026837A1 (CANCURE, published 2025):
No constants are given. Whether binding was seen depends on the method and setting. Some results given as binding are weak or reduced against the parent protein; the word gives no strength. Where a sequence is shown, tags or fusion partners need not be part of it.

T1: MICB (antigen in solution in the BLI assay) (UniProt Q29980)
T1 sequence (looked up): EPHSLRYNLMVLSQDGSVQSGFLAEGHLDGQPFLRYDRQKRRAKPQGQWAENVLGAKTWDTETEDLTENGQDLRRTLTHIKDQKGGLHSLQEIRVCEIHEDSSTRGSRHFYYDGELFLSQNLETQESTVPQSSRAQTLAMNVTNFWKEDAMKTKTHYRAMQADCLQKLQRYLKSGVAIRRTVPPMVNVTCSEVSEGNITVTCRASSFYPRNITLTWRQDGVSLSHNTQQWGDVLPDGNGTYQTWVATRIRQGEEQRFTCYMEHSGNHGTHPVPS


Target: T1, MICB (antigen in solution in the BLI assay)
Test: Bio-layer interferometry (Octet Red96), antibody captured on biosensors, MICB dilution series in solution

binding	Binder
binds	antibody J (Ab-J; chimeric B10G5, parental HC / parental LC with human IgG1 Fc region) (antibody, V domains shown, also called chimeric antibody B10G5) VH: EVQLEESGPGLVKPSQSLSLTCTVTGYSITSDYAWNWIRQFPGNKLEWMGYISYSGSTNYNPSLKSRISITRDTSKNQFFLQLNSVITEDTATYYCARGGTYFDYWGQGTTLTVSS VL: DIVLTQTTSYLSVSLGGRVTIACKASAHINNWLAWYQQKPGNAPRLLISDATSLETGVPSRFSGSGSGKDYTLSITSLQTEDVATYYCQHYWSTPWTFGGGTKLEIK
binds	antibody K (Ab-K; humanized HC2 / humanized LC3, human IgG1) (antibody, V domains shown, also called K (HC2/LC3)) VH: EVQLQESGPGLVKPSQTLSLTCTVSGYSITSDYAWNWIRQPPGKGLEWIGYISYSGSTNYNPSLKSRVTISRDTSKNQFSLKLSSVTAADTAVYYCARGGTYFDYWGQGTLVTVSS VL: DVVMTQSPSTLSASVGDRVTITCRASAHINNWLAWYQQKPGKAPKLLISDATSLESGVPSRFSGSGSGKEYTLTISSLQPDDFATYYCQHYWSTPWTFGQGTKVEIKR
